For at least one compound, name, drawing or mass did not settle the structure.
Tested on: CLAS populations
Experiment: Effect on CLAS populations, mean Ct by quantitative PCR (Example 2)
Conditions: P<0.05, Fisher's LSD

SMILES: CN(C)[C@@H]1C(O)=C(C(N)=O)C(=O)[C@@]2(O)C(O)=C3C(=O)c4c(O)cccc4[C@@](C)(O)[C@H]3[C@H](O)[C@@H]12 [Oxytetracycline, reference compound]
- CLAS population reduction as compared to water-treated control: significant effect
